The experiment deals with T1, Myc-tagged DUSP10 WT (UniProt Q9ESS0).
T1 sequence: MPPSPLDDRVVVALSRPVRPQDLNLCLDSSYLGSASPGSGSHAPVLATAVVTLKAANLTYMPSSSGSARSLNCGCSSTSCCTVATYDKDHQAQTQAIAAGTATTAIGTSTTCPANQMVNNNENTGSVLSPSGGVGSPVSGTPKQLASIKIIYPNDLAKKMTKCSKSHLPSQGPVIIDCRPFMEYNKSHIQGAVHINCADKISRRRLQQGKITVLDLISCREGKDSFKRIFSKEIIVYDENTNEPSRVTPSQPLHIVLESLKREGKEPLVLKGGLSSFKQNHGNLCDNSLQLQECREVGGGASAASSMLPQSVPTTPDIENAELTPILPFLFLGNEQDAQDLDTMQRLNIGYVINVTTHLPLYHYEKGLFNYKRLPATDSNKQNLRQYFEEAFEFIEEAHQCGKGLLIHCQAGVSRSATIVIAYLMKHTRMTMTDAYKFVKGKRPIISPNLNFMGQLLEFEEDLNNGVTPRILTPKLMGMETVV
In words: co-IP; 293T cells transfected with Flag-tagged GATA3 and/or Myc-tagged DUSP10; immunoprecipitation with mAb to Flag or mAb to Myc, immunoblot for p38; IL-33 not added to the cells. In general terms: Immunoblotting shows a protein as a band on a membrane.

The results in this text go back to article PMC6185962.

No constants are given. Whether binding was seen depends on the method and setting. Binding seen in cells or lysates may run through a third protein. A result given as binding can be weak or reduced; the word gives no strength. Where a sequence is shown, tags or fusion partners need not be part of it.

For the substance “p38 MAPK (human (endogenous in 293T)) (enzyme)”, the binding result is reported as “binds”.
